Source: paper PMC4565980
These are yes or no findings as the source states them, for the method shown. In cells and extracts the contact can be indirect. Some results given as binding are weak or reduced against the parent protein; the word gives no strength. Sequences can lack the tags named with a protein.

T1: v5-tagged lamin A, in vitro translated (human), P02545
T1 chain: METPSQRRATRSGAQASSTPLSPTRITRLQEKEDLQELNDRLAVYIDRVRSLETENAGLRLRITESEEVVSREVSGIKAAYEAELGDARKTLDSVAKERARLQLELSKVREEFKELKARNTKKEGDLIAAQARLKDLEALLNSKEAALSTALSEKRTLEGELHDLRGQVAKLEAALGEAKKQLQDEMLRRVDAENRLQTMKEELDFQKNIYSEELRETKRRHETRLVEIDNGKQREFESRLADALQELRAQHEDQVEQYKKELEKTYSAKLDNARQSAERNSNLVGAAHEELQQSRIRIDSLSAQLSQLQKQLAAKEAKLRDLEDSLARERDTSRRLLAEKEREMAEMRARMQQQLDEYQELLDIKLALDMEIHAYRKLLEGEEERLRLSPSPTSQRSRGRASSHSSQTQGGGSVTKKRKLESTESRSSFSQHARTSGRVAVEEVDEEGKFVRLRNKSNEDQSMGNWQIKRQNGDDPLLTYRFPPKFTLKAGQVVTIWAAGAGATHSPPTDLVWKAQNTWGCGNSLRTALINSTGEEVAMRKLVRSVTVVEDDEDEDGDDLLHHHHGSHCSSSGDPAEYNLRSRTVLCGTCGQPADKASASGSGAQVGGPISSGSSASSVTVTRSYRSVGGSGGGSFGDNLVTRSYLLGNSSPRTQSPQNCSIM


Assays:
[1] = target: v5-tagged lamin A, in vitro translated (human) (UniProt P02545); experiment: co-IP; in vitro transcribed/translated proteins, 20 µl of each mixed, 4 µg anti-v5 antibody and protein-G Dynabeads in PBS for 12 hr at 4°C; washes in 0.5% sodium deoxycholate, 150 mM NaCl, 1% NP-40, 0.1% SDS, 50 mM TRIS pH 7.4; western blot, prey normalised to the v5 signal
[2] = target: T1, v5-tagged lamin A, in vitro translated …; experiment: as above; conditions: remark: other sources report otherwise

Row | Binder | binding [1] | binding [2]
1 | myc-LAP2α, in vitro translated (protein, UniProt P42166 1-694) MPEFLEDPSVLTKDKLKSELVANNVTLPAGEQRKDVYVQLYLQHLTARNRPPLPAGTNSKGPPDFSSDEEREPTPVLGSGAAAAGRSRAAVGRKATKKTDKPRQEDKDDLDVTELTNEDLLDQLVKYGVNPGPIVGTTRKLYEKKLLKLREQGTESRSSTPLPTISSSAENTRQNGSNDSDRYSDNEEGKKKEHKKVKSTRDIVPFSELGTTPSGGGFFQGISFPEISTRPPLGSTELQAAKKVHTSKGDLPREPLVATNLPGRGQLQKLASERNLFISCKSSHDRCLEKSSSSSSQPEHSAMLVSTAASPSLIKETTTGYYKDIVENICGREKSGIQPLCPERSHISDQSPLSSKRKALEESESSQLISPPLAQAIRDYVNSLLVQGGVGSLPGTSNSMPPLDVENIQKRIDQSKFQETEFLSPPRKVPRLSEKSVEERDSGSFVAFQNIPGSELMSSFAKTVVSHSLTTLGLEVAKQSQHDKIDASELSFPFHESILKVIEEEWQQVDRQLPSLACKYPVSSREATQILSVPKVDDEILGFISEATPLGGIQAASTESCNQQLDLALCRAYEAAASALQIATHTAFVAKAMQADISQAAQILSSDPSRTHQALGILSKTYDAASYICEAAFDEVKMAAHTMGNATVGRRYLWLKDCKINLASKNKLASTPFKGGTLFGGEVCKVIKKRGNKH | binds | 
2 | HA-emerin, in vitro translated, P50402 1-254 (protein) MDNYADLSDTELTTLLRRYNIPHGPVVGSTRRLYEKKIFEYETQRRRLSPPSSSAASSYSFSDLNSTRGDADMYDLPKKEDALLYQSKGYNDDYYEESYFTTRTYGEPESAGPSRAVRQSVTSFPDADAFHHQVHDDDLLSSSEEECKDRERPMYGRDSAYQSITHYRPVSASRSSLDLSYYPTSSSTSFMSSSSSSSSWLTRRAIRPENRAPGAGLGQDRQVPLWGQLLLFLVFVIVLFFIYHFMQAEEGNPF |  | binds
